Measurements published in patent US20260091082A1, “CYCLIC PEPTIDE DERIVATIVE COMPOSITION FOR TREATING OR PREVENTING EYE DISEASE” (DKS Co. Ltd., priority 2022, published 2026).
This continues a long series; more values of the same kind are listed elsewhere.

Assay: General condition observation (clinical signs) in anterior chamber aqueous humor pressure load rat model
Assay type: in vivo, Rat; Slc: SD
Parameters: key: —: No anormal sign
Conditions: 1 mg/mL eye drop, right eye, per animal
Protocol: • Species and strains: Rat; Slc: SD • Number of animals on arrival and sex: 50 males • Age in weeks at arrival: 6 weeks old • Body weight range at arrival: 147.2 to 170.0 g • Source: Japan SLC, Inc.
The body weight of the animals was measured at a frequency of once a week or more, and the general condition observation was performed every day.
• Administration route: Eyedrop administration, intravenous administration • Administration method (eyedrop): Eyedrop administration was performed on a treated eye (right eye) of a rat using a micropipette 4 times a day (at intervals of 1.5 hours or more). • Administration method (intravenous): The amount of administration solution, calculated from the body weight on the day of administration, was administered from the tail vein using a syringe and an injection needle about 30 minutes before ischemic load. • Time of administration: Administration was performed according to the following schedule.

Measured: Clinical signs

CC[C@@]1(C)Oc2cc(ccc2O)C[C@H](NC)C(=O)N[C@@H](C(C)C)C(=O)N[C@@H]1C(=O)N[C@@H](CC(=O)O)C(=O)O [Compound 9]
—: Day 7, animals 201-210 (test group 2, dosed on the 2 days before model creation) | Day 7, animals 301-310 (test group 3, dosed 13 days from the day after model creation) | Day 8, animals 201-210 (test group 2, dosed on the 2 days before model creation) | Day 8, animals 301-310 (test group 3, dosed 13 days from the day after model creation) | Day 9, animals 201-210 (test group 2, dosed on the 2 days before model creation) | Day 9, animals 301-310 (test group 3, dosed 13 days from the day after model creation) | Day 10, animals 201-210 (test group 2, dosed on the 2 days before model creation) | Day 10, animals 301-310 (test group 3, dosed 13 days from the day after model creation) | Day 11, animals 201-210 (test group 2, dosed on the 2 days before model creation) | Day 11, animals 301-310 (test group 3, dosed 13 days from the day after model creation) | Day 12, animals 201-210 (test group 2, dosed on the 2 days before model creation) | Day 12, animals 301-310 (test group 3, dosed 13 days from the day after model creation) | Day 13, animals 201-210 (test group 2, dosed on the 2 days before model creation) | Day 13, animals 301-310 (test group 3, dosed 13 days from the day after model creation) | Day 14 (day of necropsy), animals 201-210 (test group 2, dosed on the 2 days before model creation) | Day 14 (day of necropsy), animals 301-310 (test group 3, dosed 13 days from the day after model creation)
